Data on four molecules can be found in paper PMC11601944.

Sequences of proteins named here, by UniProt entry; tags and fusion partners are left off.
UniProt Q14789: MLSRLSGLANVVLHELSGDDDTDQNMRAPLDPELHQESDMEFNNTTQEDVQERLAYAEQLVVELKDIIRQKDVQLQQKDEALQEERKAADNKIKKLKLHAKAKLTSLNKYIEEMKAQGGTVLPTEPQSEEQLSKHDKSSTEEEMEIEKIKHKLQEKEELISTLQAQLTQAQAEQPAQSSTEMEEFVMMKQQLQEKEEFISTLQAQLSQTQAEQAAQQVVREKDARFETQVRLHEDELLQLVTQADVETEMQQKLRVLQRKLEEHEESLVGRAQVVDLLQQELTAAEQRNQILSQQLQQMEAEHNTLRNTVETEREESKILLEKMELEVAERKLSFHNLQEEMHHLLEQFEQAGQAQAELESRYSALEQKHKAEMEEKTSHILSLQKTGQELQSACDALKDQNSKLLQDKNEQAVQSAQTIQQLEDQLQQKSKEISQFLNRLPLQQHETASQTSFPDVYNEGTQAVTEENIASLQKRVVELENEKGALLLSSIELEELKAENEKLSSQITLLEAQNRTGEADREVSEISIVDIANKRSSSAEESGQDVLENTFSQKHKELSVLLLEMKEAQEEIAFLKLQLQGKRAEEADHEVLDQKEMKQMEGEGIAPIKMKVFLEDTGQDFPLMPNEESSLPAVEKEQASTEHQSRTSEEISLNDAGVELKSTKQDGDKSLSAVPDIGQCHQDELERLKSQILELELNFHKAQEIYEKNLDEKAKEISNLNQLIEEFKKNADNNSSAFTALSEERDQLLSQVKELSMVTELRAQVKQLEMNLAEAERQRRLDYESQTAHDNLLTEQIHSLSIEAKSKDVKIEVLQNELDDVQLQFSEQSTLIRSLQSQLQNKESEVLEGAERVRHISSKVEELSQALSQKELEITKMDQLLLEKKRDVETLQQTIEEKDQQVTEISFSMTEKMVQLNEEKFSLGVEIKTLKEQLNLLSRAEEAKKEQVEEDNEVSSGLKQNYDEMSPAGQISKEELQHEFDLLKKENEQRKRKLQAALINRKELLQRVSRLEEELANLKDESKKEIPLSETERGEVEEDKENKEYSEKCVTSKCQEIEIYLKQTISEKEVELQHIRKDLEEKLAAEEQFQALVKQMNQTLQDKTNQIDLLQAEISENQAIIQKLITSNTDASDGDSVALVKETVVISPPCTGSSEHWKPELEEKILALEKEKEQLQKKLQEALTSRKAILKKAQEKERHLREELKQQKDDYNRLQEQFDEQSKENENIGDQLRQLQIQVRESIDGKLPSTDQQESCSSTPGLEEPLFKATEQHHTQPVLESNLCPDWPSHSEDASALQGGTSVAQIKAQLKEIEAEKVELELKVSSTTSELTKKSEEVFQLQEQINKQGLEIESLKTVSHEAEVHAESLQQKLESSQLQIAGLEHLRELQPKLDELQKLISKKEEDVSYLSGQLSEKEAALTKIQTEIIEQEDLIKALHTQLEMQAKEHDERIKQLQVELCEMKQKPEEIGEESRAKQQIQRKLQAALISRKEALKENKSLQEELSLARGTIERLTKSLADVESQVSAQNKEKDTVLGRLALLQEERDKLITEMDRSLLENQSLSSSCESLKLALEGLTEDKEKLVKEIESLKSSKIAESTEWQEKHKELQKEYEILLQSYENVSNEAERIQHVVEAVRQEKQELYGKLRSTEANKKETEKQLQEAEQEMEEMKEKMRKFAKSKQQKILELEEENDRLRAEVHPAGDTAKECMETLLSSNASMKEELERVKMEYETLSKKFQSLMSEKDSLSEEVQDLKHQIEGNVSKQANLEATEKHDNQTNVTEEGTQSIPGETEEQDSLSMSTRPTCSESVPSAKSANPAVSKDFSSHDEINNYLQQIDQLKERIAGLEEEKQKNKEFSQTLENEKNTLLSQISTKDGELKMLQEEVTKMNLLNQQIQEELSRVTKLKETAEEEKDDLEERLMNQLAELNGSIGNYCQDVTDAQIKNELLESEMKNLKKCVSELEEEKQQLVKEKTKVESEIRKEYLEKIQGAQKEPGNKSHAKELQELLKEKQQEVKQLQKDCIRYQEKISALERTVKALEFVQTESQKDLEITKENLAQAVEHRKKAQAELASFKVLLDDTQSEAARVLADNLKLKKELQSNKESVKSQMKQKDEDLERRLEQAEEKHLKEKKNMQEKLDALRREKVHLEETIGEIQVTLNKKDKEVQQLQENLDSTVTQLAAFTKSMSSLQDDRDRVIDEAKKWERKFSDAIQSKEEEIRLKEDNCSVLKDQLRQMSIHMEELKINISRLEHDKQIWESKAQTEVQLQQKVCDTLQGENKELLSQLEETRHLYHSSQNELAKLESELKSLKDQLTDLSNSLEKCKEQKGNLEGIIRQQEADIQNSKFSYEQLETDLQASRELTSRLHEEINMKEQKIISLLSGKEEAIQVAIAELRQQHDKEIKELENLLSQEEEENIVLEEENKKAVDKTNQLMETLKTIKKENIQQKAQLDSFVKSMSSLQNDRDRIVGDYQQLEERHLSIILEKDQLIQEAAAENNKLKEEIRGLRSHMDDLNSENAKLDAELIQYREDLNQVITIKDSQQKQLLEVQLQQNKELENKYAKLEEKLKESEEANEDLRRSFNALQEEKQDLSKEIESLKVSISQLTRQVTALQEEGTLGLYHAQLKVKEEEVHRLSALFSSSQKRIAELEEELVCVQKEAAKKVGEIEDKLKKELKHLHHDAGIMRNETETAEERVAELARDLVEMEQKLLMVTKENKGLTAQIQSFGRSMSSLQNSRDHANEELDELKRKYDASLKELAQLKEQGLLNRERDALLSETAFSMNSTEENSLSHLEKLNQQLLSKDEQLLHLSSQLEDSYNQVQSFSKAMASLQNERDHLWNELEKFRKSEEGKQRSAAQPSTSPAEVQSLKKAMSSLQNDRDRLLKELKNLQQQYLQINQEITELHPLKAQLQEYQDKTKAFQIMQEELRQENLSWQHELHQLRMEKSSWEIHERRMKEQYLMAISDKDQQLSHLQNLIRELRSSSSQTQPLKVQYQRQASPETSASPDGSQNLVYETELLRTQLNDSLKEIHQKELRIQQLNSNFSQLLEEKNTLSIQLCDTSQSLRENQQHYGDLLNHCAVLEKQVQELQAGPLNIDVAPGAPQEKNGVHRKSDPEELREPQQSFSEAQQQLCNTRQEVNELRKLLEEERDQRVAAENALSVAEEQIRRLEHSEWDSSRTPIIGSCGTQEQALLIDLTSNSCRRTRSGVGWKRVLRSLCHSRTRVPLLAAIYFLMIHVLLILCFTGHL

Assay [1] concerns the target T1, C2GnT-2 (human (endogenous in LSG and HSG cells)) (UniProt O95395).
T1 sequence: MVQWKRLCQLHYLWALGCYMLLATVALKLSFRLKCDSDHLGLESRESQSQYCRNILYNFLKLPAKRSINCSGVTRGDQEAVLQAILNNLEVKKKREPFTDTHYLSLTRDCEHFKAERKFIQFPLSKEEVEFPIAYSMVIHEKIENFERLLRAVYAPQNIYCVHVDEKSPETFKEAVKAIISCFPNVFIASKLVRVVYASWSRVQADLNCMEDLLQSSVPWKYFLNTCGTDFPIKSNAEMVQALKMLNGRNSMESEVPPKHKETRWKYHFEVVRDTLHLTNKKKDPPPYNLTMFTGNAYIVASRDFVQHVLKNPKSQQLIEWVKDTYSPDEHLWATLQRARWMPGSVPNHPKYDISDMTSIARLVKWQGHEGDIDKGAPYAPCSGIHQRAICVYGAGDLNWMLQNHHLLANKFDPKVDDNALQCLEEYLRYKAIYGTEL
Put plainly: co-IP; protein extracts of HSG cells (20 mM Tris-HCl pH 7.4, 150 mM NaCl, 1% Igepal, protease inhibitors); 500 ug total protein per assay; antibody-coated Protein-A/G-Sepharose beads; Western blot; control IgG anti-integrin alpha6. For orientation: Immunoblotting shows a protein as a band on a membrane.

Assay [2] has as its target T2, Gal3-O-sulfotransferase 2 (human (endogenous in LSG and HSG cells)) (UniProt Q9H3Q3).
T2 sequence: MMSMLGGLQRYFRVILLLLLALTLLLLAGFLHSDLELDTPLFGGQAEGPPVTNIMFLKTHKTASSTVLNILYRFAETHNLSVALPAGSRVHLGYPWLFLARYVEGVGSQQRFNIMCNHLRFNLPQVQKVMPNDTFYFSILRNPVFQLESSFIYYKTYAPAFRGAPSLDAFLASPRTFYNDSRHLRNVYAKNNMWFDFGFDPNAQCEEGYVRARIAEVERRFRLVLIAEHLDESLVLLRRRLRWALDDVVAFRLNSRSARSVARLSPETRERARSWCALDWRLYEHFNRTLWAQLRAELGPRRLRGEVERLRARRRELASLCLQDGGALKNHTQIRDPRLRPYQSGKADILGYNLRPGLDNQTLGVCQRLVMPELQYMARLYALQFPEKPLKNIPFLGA
The assay is described as above.

Assay [3] addresses T3, Gal3-O-sulfotransferase 4 (human (endogenous in LSG and HSG cells)) (UniProt Q96RP7).
T3 sequence: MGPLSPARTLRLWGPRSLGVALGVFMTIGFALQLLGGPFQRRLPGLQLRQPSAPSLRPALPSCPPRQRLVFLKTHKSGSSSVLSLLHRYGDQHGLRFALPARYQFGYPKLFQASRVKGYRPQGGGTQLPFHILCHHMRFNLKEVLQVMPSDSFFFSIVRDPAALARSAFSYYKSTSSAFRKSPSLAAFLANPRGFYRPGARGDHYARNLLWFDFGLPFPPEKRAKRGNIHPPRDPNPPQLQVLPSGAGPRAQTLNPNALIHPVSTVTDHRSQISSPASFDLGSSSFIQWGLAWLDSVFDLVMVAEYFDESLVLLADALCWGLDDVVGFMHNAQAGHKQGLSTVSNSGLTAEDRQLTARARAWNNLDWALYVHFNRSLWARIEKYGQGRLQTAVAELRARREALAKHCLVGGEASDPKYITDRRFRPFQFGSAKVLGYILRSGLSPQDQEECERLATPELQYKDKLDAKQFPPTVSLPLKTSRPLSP
The assay is described as above.

Assay [4] deals with T1, C2GnT-2 (human (endogenous in LSG and HSG cells)). Put plainly: co-IP; pooled protein extracts of LSG from patients with SjD or controls (20 mM Tris-HCl pH 7.4, 150 mM NaCl, 1% Igepal, protease inhibitors); 500 ug total protein per assay; antibody-coated Protein-A/G-Sepharose beads; Western blot; control IgG anti-integrin alpha6.
The target of assay [5] is T2, Gal3-O-sulfotransferase 2 (human (endogenous in LSG and HSG cells)). The assay is described as above.
The target of assay [6] is T3, Gal3-O-sulfotransferase 4 (human (endogenous in LSG and HSG cells)). The description is as above.
Assay [7] addresses Giantin (human (endogenous in LSG and HSG cells)) (UniProt Q14789). Briefly: co-IP; protein extracts of HSG cells (20 mM Tris-HCl pH 7.4, 150 mM NaCl, 1% Igepal, protease inhibitors); 500 ug total protein per assay; antibody-coated Protein-A/G-Sepharose beads; Western blot; control IgG anti-integrin alpha6.
Assay [8] shares this target. Put plainly: co-IP; pooled protein extracts of LSG from patients with SjD or controls (20 mM Tris-HCl pH 7.4, 150 mM NaCl, 1% Igepal, protease inhibitors); 500 ug total protein per assay; antibody-coated Protein-A/G-Sepharose beads; Western blot; control IgG anti-integrin alpha6.
The target in assay [9] is T4, GM130 (human (endogenous in LSG and HSG cells)) (UniProt Q08379).
T4 sequence: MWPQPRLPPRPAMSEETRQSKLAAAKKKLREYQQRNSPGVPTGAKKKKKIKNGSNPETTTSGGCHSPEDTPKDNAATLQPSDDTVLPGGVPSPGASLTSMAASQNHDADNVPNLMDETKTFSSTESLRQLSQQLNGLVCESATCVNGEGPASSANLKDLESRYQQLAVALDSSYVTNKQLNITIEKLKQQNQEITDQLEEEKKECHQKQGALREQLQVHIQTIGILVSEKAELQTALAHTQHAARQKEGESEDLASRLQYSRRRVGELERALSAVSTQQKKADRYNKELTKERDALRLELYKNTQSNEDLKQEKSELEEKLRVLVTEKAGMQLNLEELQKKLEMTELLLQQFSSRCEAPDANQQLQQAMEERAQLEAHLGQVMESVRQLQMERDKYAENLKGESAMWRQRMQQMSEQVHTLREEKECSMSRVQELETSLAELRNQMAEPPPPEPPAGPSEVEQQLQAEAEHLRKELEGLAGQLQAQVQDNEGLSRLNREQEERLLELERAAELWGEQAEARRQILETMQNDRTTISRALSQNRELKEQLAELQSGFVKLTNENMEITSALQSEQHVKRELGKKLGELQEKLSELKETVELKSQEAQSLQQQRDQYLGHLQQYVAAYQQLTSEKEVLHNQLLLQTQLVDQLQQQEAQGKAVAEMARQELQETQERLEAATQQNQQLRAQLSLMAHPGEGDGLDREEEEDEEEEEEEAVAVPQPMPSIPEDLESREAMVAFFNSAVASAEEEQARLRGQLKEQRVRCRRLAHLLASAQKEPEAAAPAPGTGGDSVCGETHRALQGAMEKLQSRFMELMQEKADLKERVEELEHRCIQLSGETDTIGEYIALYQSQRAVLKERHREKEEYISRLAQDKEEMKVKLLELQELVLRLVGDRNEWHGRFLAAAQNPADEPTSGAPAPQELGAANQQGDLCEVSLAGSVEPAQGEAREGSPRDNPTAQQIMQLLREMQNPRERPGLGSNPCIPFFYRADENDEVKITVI
Put plainly: co-IP; protein extracts of HSG cells (20 mM Tris-HCl pH 7.4, 150 mM NaCl, 1% Igepal, protease inhibitors); 500 ug total protein per assay; antibody-coated Protein-A/G-Sepharose beads; Western blot; control IgG anti-integrin alpha6.

These are yes or no findings as the source states them, for the method shown. In cells and extracts the contact can be indirect. Some entries that bind do so weakly or less than the wild type.

For the molecule Giantin (from UniProt Q14789 1-3259), the binding result in [1], in assay [2], in assay [3], in assay [4], in assay [5] and in assay [6] was “binds” throughout.

B1: GM130 (protein, UniProt Q08379 1-1002)
chain: T4 sequence
B1: the binding result in assay [2] and in assay [5] was “no binding” each time.

B2: Gal3-O-sulfotransferase 4 (enzyme, UniProt Q96RP7 1-486)
chain: T3 sequence
As to B2, the binding result in assay [7] and in assay [8] was “binds” each time.

B3: GNT-1 (enzyme, UniProt P26572 1-445)
chain: MLKKQSAGLVLWGAILFVAWNALLLLFFWTRPAPGRPPSVSALDGDPASLTREVIRLAQDAEVELERQRGLLQQIGDALSSQRGRVPTAAPPAQPRVPVTPAPAVIPILVIACDRSTVRRCLDKLLHYRPSAELFPIIVSQDCGHEETAQAIASYGSAVTHIRQPDLSSIAVPPDHRKFQGYYKIARHYRWALGQVFRQFRFPAAVVVEDDLEVAPDFFEYFRATYPLLKADPSLWCVSAWNDNGKEQMVDASRPELLYRTDFFPGLGWLLLAELWAELEPKWPKAFWDDWMRRPEQRQGRACIRPEISRTMTFGRKGVSHGQFFDQHLKFIKLNQQFVHFTQLDLSYLQREAYDRDFLARVYGAPQLQVEKVRTNDRKELGEVRVQYTGRDSFKAFAKALGVMDDLKSGVPRAGYRGIVTFQFRGRRVHLAPPLTWEGYDPSWN
For B3, the binding result in assay [9] and in assay [7] was “binds” in each case.
